# Some of the results follow.
# B1: AT5G24760(45) (Arabidopsis thaliana), Q8LEB2 (protein)
# chain: MSASSSSFEQPQVITCNAAVAWRAGEPLVMEEVEVSPPQPLEIRIKVVCTSLCRSDLSAWESQSLLPRIFGHEAAGIVESIGEGVTEFEKGDHVLAVFTGECGSCRHCISGKSNMCQVLGMERKGLMHSDQKTRFSIKGKPVYHYCAVSSFSEYTVVHSGCAVKVDPLAPLHKICLLSCGVAAGLGAAWNVADVQKGSSVVIFGLGTVGLSVAQGAKLRGAAQILGVDINPAKAEQAKTFGVTDFINSNDLSEPIPQVIKRMTGGGADFSFECVGDTGIATTALQSCSDGWGMTVTLGVPKAKPEVSAHYGLFLSGKSLKGTLFGGWKPKSDLPSLIDKYMNKEIMIDEFITHNLSFDEINKAFVLMREGKCLRCVLHMPK
# Experiments:
# Experiment in all cases: glycan array binding signal (z-score within array); higher = stronger binding
# Details in all cases: glycan notation: IUPAC condensed, linker removed
# [1] = biological target: Fuc(a1-3)[Gal3S(b1-4)]GlcNAc
# In short: (§1)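 The binding signal is a Z-score computed within each array and averaged over linkers. Arrays of the same protein sequence at different concentrations or buffers were also averaged together. Data originate from 3228 arrays in the Consortium for Functional Glycomics database, kept only where the protein sequence was available.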
# [2] = biological target: Fuc(a1-3)[Gal3S(b1-4)]GlcNAc6S
# In short: as §1
# [3] = biological target: Fuc(a1-3)[GalNAc(b1-4)]GlcNAc
# In short: as §1
# [4] = biological target: Fuc(a1-3)[GalNAc(b1-4)]GlcNAc6S
# In short: as §1
# [5] = biological target: Fuc(a1-4)GlcNAc
# In short: as §1
# [6] = biological target: Fuc(b1-3)GlcNAc
# In short: as §1
# [7] = biological target: Gal(a1-2)Gal
# In short: as §1
# [8] = biological target: Gal(a1-3)Gal
# In short: as §1
# [9] = biological target: Gal(a1-3)Gal(b1-3)GlcNAc
# In short: as §1
# [10] = biological target: Gal(a1-3)Gal(b1-3)GlcNAc(b1-2)Man
# In short: as §1
# [11] = biological target: Gal(a1-3)Gal(b1-3)GlcNAc(b1-2)Man(a1-3)[Gal(a1-3)Gal(b1-3)GlcNAc(b1-2)Man(a1-6)]Man(b1-4)GlcNAc(b1-4)GlcNAc
# In short: as §1
# [12] = biological target: Gal(a1-3)Gal(b1-3)GlcNAc(b1-3)GalNAc
# In short: as §1
# [13] = biological target: Gal(a1-3)Gal(b1-3)GlcNAc(b1-6)GalNAc
# In short: as §1
# [14] = biological target: Gal(a1-3)Gal(b1-3)[Fuc(a1-4)]GlcNAc(b1-2)Man(a1-3)[Gal(a1-3)Gal(b1-3)[Fuc(a1-4)]GlcNAc(b1-2)Man(a1-6)]Man(b1-4)GlcNAc(b1-4)GlcNAc
# In short: as §1
# [15] = biological target: Gal(a1-3)Gal(b1-4)Glc
# In short: as §1
# [16] = biological target: Gal(a1-3)Gal(b1-4)GlcNAc
# In short: as §1
# [17] = biological target: Gal(a1-3)Gal(b1-4)GlcNAc(b1-2)Man
# In short: as §1
# [18] = biological target: Gal(a1-3)Gal(b1-4)GlcNAc(b1-2)Man(a1-3)[Gal(a1-3)Gal(b1-4)GlcNAc(b1-2)Man(a1-6)]Man(b1-4)GlcNAc(b1-4)GlcNAc
# In short: as §1
# [19] = biological target: Gal(a1-3)Gal(b1-4)GlcNAc(b1-3)GalNAc
# In short: as §1
# [20] = biological target: Gal(a1-3)Gal(b1-4)GlcNAc(b1-6)GalNAc
# In short: as §1
# [21] = biological target: Gal(a1-3)Gal(b1-4)[Fuc(a1-3)]GlcNAc
# In short: as §1
# [22] = biological target: Gal(a1-3)Gal(b1-4)[Fuc(a1-3)]GlcNAc(b1-2)Man(a1-3)[Gal(a1-3)Gal(b1-4)[Fuc(a1-3)]GlcNAc(b1-2)Man(a1-6)]Man(b1-4)GlcNAc(b1-4)GlcNAc
# In short: as §1
# [23] = biological target: Gal(a1-3)GalNAc
# In short: as §1
# [24] = biological target: Gal(a1-3)[Gal(a1-4)]Gal(b1-4)GlcNAc
# In short: as §1
# [25] = biological target: Gal(a1-4)Gal(b1-3)GlcNAc(b1-2)Man(a1-3)[Gal(a1-4)Gal(b1-3)GlcNAc(b1-2)Man(a1-6)]Man(b1-4)GlcNAc(b1-4)GlcNAc
# In short: as §1
# [26] = biological target: Gal(a1-4)Gal(b1-4)Glc
# In short: as §1
# [27] = biological target: Gal(a1-4)Gal(b1-4)GlcNAc
# In short: as §1
# [28] = biological target: Gal(a1-4)Gal(b1-4)GlcNAc(b1-2)Man(a1-3)[Gal(a1-4)Gal(b1-4)GlcNAc(b1-2)Man(a1-6)]Man(b1-4)GlcNAc(b1-4)GlcNAc
# In short: as §1
# [29] = biological target: Gal(a1-4)Gal(b1-4)GlcNAc(b1-3)Gal(b1-4)Glc
# In short: as §1
# [30] = biological target: Gal(a1-4)GlcNAc
# In short: as §1
# [31] = biological target: Gal(a1-6)Glc
# In short: as §1
# [32] = biological target: Gal(b1-2)Gal
# In short: as §1
# [33] = biological target: Gal(b1-3)Gal
# In short: as §1
# [34] = biological target: Gal(b1-3)Gal(b1-4)GlcNAc
# In short: as §1
# [35] = biological target: Gal(b1-3)GalNAc
# In short: as §1
# [36] = biological target: Gal(b1-3)GalNAc(a1-3)[Fuc(a1-2)]Gal(b1-4)Glc
# In short: as §1
# [37] = biological target: Gal(b1-3)GalNAc(a1-3)[Fuc(a1-2)]Gal(b1-4)GlcNAc
# In short: as §1
binder,measurement,setting,value
B1,glycan array binding signal (z-score),[1],1.93
same,glycan array binding signal (z-score),[2],-0.218
same,glycan array binding signal (z-score),[3],1.18
same,glycan array binding signal (z-score),[4],-0.19
same,glycan array binding signal (z-score),[5],1.12
same,glycan array binding signal (z-score),[6],1.27
same,glycan array binding signal (z-score),[7],1.02
same,glycan array binding signal (z-score),[8],0.612
same,glycan array binding signal (z-score),[9],7.36
same,glycan array binding signal (z-score),[10],0.008
same,glycan array binding signal (z-score),[11],1.07
same,glycan array binding signal (z-score),[12],0.234
same,glycan array binding signal (z-score),[13],-0.449
same,glycan array binding signal (z-score),[14],1.46
same,glycan array binding signal (z-score),[15],-0.124
same,glycan array binding signal (z-score),[16],-0.393
same,glycan array binding signal (z-score),[17],0.617
same,glycan array binding signal (z-score),[18],0.041
same,glycan array binding signal (z-score),[19],-0.254
same,glycan array binding signal (z-score),[20],-0.426
same,glycan array binding signal (z-score),[21],-0.432
same,glycan array binding signal (z-score),[22],-0.89
same,glycan array binding signal (z-score),[23],0.963
same,glycan array binding signal (z-score),[24],6.01
same,glycan array binding signal (z-score),[25],-0.036
same,glycan array binding signal (z-score),[26],1.07
same,glycan array binding signal (z-score),[27],1.04
same,glycan array binding signal (z-score),[28],-0.343
same,glycan array binding signal (z-score),[29],0.068
same,glycan array binding signal (z-score),[30],0.133
same,glycan array binding signal (z-score),[31],-0.541
same,glycan array binding signal (z-score),[32],0.51
same,glycan array binding signal (z-score),[33],0.698
same,glycan array binding signal (z-score),[34],-0.084
same,glycan array binding signal (z-score),[35],0.106
same,glycan array binding signal (z-score),[36],-1.06
same,glycan array binding signal (z-score),[37],0.074

# Given bar-delimited: entries from further up
binder | measurement | setting | value
B1 | glycan array binding signal (z-score) | [10] | 0.008
same | glycan array binding signal (z-score) | [11] | 1.07
